The target of one test is T1, Flag–SRSF3–K85R (human) (UniProt P84103).
T1 sequence: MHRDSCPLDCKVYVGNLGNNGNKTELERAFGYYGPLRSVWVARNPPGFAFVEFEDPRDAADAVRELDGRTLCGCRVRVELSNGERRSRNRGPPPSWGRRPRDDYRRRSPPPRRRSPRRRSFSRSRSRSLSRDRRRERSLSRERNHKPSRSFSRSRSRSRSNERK
In words: co-IP; Flag agarose beads, 1–2 mg lysate, overnight at 4 °C; IP buffer 50 mM Tris-Cl pH 7.5, 150 mM NaCl, 1 mM EDTA, 1% Triton X-100; cells mock or arsenite treated; western blot of the precipitates. For orientation: Immunoblotting shows a protein as a band on a membrane.

In another test the target is T2, Flag–SRSF3-WT (human) (UniProt P84103).
T2 sequence: T1 sequence with R85K
The description is as above.

Changes are numbered by the printed parent chain. These are yes or no findings as the source states them, for the method shown. In cells and extracts the contact can be indirect. Binding can be weak; no strength is given. Sequences can lack the tags named with a protein.

This passage reports binding results from PMC4935812.

On to eIF4G, for which the binding result with Flag–SRSF3–K85R (human) and with Flag–SRSF3-WT (human) was “binds” in each case.
